# Experimental data as given in paper PMC11375253.
# Protein sequences, listed by entry. Tags and fused reporters are not part of them. Residues count along the entry.
# UniProt P40692, residues 516-650: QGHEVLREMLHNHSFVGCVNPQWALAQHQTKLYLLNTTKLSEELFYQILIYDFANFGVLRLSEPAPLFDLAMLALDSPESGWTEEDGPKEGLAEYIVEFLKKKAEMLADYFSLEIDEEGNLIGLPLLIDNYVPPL
# UniProt Q7Z6Z7: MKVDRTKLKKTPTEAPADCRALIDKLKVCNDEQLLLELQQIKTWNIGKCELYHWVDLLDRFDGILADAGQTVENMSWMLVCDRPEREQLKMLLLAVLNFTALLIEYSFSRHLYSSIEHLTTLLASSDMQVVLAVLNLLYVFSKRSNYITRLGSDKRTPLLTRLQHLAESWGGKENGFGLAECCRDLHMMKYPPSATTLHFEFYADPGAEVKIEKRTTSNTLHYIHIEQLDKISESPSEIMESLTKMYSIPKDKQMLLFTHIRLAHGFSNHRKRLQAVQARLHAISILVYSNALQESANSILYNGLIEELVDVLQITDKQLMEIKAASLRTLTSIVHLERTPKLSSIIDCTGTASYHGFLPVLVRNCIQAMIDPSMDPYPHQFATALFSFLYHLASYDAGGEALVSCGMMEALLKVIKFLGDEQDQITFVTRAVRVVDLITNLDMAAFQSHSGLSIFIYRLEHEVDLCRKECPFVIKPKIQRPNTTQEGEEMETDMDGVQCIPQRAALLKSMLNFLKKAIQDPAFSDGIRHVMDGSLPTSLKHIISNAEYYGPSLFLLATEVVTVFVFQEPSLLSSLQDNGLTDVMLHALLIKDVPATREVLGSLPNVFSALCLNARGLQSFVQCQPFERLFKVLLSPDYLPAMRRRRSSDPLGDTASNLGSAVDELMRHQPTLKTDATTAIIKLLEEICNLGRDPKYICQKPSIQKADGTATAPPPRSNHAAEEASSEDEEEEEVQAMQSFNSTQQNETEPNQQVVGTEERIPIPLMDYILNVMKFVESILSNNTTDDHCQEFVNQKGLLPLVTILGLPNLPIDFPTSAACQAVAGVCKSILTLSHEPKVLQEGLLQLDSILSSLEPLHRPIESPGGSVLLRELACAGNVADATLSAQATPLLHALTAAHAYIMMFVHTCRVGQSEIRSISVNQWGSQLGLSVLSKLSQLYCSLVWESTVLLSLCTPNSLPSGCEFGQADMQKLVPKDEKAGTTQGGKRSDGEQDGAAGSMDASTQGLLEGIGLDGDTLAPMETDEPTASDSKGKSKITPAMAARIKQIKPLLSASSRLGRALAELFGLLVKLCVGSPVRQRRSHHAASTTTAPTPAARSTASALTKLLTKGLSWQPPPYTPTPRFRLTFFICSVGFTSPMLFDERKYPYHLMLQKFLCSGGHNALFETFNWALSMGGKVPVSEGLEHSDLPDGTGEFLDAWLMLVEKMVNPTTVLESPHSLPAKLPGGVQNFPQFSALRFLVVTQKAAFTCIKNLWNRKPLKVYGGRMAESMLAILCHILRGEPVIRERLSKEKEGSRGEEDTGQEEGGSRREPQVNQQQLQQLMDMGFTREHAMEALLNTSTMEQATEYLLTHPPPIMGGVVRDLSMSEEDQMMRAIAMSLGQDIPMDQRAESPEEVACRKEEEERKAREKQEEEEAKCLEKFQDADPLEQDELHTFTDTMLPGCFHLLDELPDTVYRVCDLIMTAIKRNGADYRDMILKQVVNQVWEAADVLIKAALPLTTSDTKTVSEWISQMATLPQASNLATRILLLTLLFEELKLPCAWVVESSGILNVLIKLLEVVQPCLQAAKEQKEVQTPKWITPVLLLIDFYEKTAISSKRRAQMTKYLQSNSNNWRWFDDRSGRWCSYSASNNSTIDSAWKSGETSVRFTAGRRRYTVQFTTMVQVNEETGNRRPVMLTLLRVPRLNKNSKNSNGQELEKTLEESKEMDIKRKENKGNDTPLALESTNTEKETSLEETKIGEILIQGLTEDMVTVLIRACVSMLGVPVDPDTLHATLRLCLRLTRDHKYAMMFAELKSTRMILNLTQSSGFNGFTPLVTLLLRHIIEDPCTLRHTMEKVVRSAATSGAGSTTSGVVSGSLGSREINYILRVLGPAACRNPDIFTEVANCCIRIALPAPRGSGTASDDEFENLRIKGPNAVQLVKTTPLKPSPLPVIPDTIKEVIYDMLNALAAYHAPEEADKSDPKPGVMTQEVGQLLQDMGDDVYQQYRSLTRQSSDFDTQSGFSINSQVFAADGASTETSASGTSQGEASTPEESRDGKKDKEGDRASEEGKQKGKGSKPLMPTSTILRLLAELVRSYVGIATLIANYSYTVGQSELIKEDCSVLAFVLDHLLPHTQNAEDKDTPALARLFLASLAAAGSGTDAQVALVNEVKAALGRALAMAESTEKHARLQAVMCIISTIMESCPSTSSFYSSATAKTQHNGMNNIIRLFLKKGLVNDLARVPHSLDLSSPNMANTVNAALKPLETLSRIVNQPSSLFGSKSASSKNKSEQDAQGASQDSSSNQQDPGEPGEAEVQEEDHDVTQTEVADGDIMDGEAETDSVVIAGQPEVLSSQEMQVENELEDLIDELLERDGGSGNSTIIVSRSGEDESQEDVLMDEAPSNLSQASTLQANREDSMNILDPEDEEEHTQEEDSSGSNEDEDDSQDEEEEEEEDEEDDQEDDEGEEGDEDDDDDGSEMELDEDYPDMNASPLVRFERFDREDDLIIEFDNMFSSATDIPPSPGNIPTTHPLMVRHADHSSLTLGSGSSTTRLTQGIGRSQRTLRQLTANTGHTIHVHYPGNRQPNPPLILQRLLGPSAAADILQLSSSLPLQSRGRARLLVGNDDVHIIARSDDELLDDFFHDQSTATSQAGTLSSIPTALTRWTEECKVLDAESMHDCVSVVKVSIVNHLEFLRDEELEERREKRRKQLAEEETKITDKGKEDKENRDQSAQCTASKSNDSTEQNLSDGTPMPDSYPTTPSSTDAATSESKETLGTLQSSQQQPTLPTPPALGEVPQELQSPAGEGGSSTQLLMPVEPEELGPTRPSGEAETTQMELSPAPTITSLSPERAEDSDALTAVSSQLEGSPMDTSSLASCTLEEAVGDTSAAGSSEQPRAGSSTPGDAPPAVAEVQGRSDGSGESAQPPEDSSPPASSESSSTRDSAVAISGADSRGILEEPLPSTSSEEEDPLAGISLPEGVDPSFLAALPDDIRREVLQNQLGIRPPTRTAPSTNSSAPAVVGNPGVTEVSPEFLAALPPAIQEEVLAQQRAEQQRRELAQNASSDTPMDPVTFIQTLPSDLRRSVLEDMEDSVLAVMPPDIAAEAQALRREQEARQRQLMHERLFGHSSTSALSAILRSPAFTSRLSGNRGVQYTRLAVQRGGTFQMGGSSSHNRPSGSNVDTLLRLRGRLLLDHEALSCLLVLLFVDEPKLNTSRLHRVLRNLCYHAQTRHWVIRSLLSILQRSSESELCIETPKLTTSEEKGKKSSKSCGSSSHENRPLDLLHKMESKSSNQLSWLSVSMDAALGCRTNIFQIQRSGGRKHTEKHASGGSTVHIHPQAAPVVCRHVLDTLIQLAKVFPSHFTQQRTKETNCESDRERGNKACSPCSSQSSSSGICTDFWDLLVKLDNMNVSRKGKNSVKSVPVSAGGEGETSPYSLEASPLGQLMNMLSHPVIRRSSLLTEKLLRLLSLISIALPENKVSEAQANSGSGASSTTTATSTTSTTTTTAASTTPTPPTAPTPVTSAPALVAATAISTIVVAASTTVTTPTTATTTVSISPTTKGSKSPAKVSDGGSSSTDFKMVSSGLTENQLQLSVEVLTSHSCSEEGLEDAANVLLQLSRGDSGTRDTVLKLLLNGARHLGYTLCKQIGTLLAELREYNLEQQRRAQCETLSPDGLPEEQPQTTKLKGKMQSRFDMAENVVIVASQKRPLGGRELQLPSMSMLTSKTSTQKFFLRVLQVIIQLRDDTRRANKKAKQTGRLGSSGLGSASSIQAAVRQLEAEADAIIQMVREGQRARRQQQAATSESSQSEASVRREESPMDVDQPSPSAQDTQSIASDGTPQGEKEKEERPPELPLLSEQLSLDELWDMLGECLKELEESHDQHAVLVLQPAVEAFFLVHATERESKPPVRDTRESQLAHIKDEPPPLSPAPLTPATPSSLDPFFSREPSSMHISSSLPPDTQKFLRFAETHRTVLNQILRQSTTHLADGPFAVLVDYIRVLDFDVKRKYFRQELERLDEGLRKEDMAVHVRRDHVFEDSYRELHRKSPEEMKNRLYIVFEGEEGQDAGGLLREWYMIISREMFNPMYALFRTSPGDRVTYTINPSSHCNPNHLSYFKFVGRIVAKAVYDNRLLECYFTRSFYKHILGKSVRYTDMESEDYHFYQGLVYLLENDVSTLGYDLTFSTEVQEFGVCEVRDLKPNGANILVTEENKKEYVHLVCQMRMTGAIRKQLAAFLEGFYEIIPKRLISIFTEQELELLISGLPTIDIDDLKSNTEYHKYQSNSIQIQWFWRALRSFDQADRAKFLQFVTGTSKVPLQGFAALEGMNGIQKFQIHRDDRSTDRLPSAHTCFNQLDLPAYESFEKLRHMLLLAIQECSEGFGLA
# UniProt Q05086: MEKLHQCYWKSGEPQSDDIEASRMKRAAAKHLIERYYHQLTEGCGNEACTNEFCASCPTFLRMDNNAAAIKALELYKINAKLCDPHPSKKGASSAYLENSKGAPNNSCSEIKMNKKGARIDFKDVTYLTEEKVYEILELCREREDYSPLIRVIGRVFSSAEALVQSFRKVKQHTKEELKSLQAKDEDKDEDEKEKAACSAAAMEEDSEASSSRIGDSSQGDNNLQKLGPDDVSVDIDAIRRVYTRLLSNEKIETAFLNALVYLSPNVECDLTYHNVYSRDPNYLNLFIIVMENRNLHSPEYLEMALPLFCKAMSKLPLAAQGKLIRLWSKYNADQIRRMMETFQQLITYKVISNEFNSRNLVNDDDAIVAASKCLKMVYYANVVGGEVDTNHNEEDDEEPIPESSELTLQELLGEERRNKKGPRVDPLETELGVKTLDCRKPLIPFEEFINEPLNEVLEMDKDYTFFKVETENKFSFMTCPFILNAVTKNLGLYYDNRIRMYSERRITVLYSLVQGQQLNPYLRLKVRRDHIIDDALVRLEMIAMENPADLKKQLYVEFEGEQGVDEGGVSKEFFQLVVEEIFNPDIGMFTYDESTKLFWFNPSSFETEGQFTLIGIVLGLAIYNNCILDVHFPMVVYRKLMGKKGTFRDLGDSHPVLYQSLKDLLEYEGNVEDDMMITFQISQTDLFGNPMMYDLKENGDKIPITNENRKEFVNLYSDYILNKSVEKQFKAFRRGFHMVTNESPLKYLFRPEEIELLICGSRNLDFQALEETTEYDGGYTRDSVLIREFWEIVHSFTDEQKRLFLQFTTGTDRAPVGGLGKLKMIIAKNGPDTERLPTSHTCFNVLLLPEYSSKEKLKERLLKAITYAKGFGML
# Target: MLH1^516-650 fragment, Flag-tagged (UniProt P40692)
# Experiment: affinity purification with mass spectrometry; HEK-293T expressing Flag-tagged MLH1 516-650, MG132 10 uM for 4 h; lysate on anti-Flag beads overnight at 4 °C; HPLC-coupled tandem mass spectrometry
row,binding,Substance
1,binds,HUWE1 (from UniProt Q7Z6Z7 1-4374) (enzyme)
2,binds,UBE3A (from UniProt Q05086 1-875) (enzyme)

# Results are given in words; binding and its absence hold for the method and conditions named. Binding seen in cells or lysates may run through a third protein. Here binding means that the protein was enriched with, or labelled near, the bait; the list need not be complete.
